Data reported in PubChem BioAssay AID248 (DTP/NCI, 2004).
The list does not hold the whole screen: it is rich in T/C values a quarter to a half above the control, in often repeated tests (any T/C) and in doses without a T/C. Other doses and runs of a compound stand elsewhere. T/C is the treated group as % of the vehicle group. Some doses have a count of surviving animals in place of a T/C: the source files T/C as zero there, which appears to mark a toxic dose or a test without result, not a measured value. Some survivor counts are full or nearly so, which does not show that the dose was tolerated: the source hardly ever lists a survival T/C far under the control, and the zero likely stands for such cases as well. Counts of survivors are from the toxicity check (mostly the fifth day) where no day follows; animals may have died later. Schedule codes are those of the source, read here as Q, the interval in days (D) or hours (H), X, the number of doses. For survival time, this PubChem deposit counts one and a half times the control or more as active, and values a quarter to a half above the control carry no call in these data; other NCI protocols may use other cut-offs. Some T/C values carry the count of animals alive at the toxicity check (mostly the fifth day); without a count, all were alive then.

Test system: L1210 leukemia ip in BDF1 mice, survival T/C
Assay: NCI In Vivo Anticancer Drug Screen. Data for tumor model L1210 Leukemia (intraperitoneal) in B6D2F1 (BDF1) mice
Settings: T/C endpoint: mean survival time, higher T/C = longer survival
[1] = dose: 400.0 mg/kg/injection, schedule: Q01DX009 (ip), vehicle: Klucel (hydroxypropylcellulose) (HPC)
[2] = dose: 200.0 mg/kg/injection, schedule: Q01DX009 (ip), vehicle: saline with Tween-80
[3] = dose: 400.0 mg/kg/injection, schedule: Q04DX003 (ip), vehicle: saline with Tween-80

`Nc1ncnc2c1nnn2C1OC(CO)C(O)C1O` (stereo unspecified) was tested, and the T/C (dose: 15.0 mg/kg/injection, schedule: Q01DX015 (ip), vehicle: saline) was 125 % of control, the T/C (dose: 28.0 mg/kg/injection, schedule: Q01DX015 (ip), vehicle: saline) was 142 % of control and the T/C (dose: 42.0 mg/kg/injection, schedule: Q01DX015 (ip), vehicle: saline) was 133 % of control. The survivor count (dose: 120.0 mg/kg/injection, schedule: Q01DX015 (ip), vehicle: saline) was 6 of 6, the survivor count (dose: 200.0 mg/kg/injection, schedule: Q01DX015 (ip), vehicle: saline) was 4 of 6 and the T/C (dose: 270.0 mg/kg/injection, schedule: Q01DX001 (ip), vehicle: saline) was 125 % of control [4 of 6 alive]. The T/C (dose: 400.0 mg/kg/injection, schedule: Q01DX001 (ip), vehicle: saline, evaluated on day 30) was 131 % of control [4 of 6 alive], the T/C (dose: 400.0 mg/kg/injection, schedule: Q01DX001 (ip), vehicle: saline, run until all animals had died) was 139 % of control [5 of 6 alive] and the survivor count (dose: 600.0 mg/kg/injection, schedule: Q01DX001 (ip), vehicle: saline) was 1 of 6. For the same compound, the survivor count (dose: 800.0 mg/kg/injection, schedule: Q01DX001 (ip), vehicle: saline) was 2 of 6.
For `O=Cc1ccc(N2CCCCC2)cc1`, the survivor count [1] was 0 of 6.
With `COc1cc(C(=O)OC2CC34CCNC35CC(OC5(OC)C2O)c2cc3c(cc24)OCO3)ccc1O` (stereo unspecified) the survivor count (dose: 4.0 mg/kg/injection, schedule: Q01DX009 (ip), vehicle: carboxymethylcellulose (CMC)) was 6 of 6 and the survivor count (dose: 8.0 mg/kg/injection, schedule: Q01DX009 (ip), vehicle: carboxymethylcellulose (CMC)) was 5 of 6.
For `CC(C)C1NC(=O)C(N)C(C)OC(=O)C(C(C)C)N(C)C(=O)CN(C)C(=O)C2CCCN2C1=O` (stereo unspecified) (tested in a mixture with another compound), the T/C (dose: 1.6 mg/kg/injection, schedule: Q01DX001 (ip), vehicle: saline + alcohol) was 133 % of control, the T/C (dose: 50.0 micrograms/kg/injection, schedule: Q01DX009 (ip), vehicle: saline + alcohol) was 127 % of control and the T/C (dose: 100.0 micrograms/kg/injection, schedule: Q01DX009 (ip), vehicle: saline + alcohol) was 127 % of control [7 of 8 alive]. The T/C (dose: 200.0 micrograms/kg/injection, schedule: Q01DX009 (ip), vehicle: saline + alcohol) was 145 % of control, the T/C (dose: 400.0 micrograms/kg/injection, schedule: Q01DX009 (ip), vehicle: saline + alcohol) was 129 % of control and the T/C (dose: 600.0 micrograms/kg/injection, schedule: Q04DX003 (ip), vehicle: saline + alcohol) was 126 % of control.
`O=C(C=C(C(F)(F)F)C(F)(F)F)c1ccc(-c2ccccc2)cc1` was tested, and the survivor count (dose: 100.0 mg/kg/injection, schedule: Q01DX009 (ip), vehicle: saline with Tween-80) was 5 of 6, the survivor count [2] was 1 of 6 and the survivor count [3] was 0 of 6.
`CCCCOP(=O)(OCCCC)C(O)CCC` (stereo unspecified) was tested, and the survivor count (dose: 400.0 mg/kg/injection, schedule: Q01DX001 (ip), vehicle: saline with Tween-80) was 6 of 6 and the survivor count [3] was 5 of 6.
In the case of `COc1ccc(Cl)cc1N`, the survivor count (dose: 200.0 mg/kg/injection, schedule: Q01DX009 (ip), vehicle: Klucel (hydroxypropylcellulose) (HPC)) was 6 of 6, the survivor count [1] was 6 of 6 and the survivor count (dose: 400.0 mg/kg/injection, schedule: Q04DX003 (ip), vehicle: Klucel (hydroxypropylcellulose) (HPC)) was 6 of 6.
For `CN(C)Cc1cccc([N+](=O)[O-])c1`, the survivor count (dose: 100.0 mg/kg/injection, schedule: Q04DX003 (ip), vehicle: saline) was 5 of 6, the survivor count (dose: 200.0 mg/kg/injection, schedule: Q04DX003 (ip), vehicle: saline) was 0 of 6 and the survivor count (dose: 400.0 mg/kg/injection, schedule: Q04DX003 (ip), vehicle: saline) was 0 of 6.
`C=CCNC(=S)Nc1ccccc1C=O` was tested, and the survivor count (dose: 200.0 mg/kg/injection, schedule: Q04DX002 (ip), vehicle: Klucel (hydroxypropylcellulose) (HPC)) was 0 of 3 and the survivor count (dose: 400.0 mg/kg/injection, schedule: Q04DX002 (ip), vehicle: Klucel (hydroxypropylcellulose) (HPC)) was 0 of 3.
`N#CC1(C(N)=O)OC1c1ccccc1Cl` (stereo unspecified) was tested, and the survivor count (dose: 400.0 mg/kg/injection, schedule: Q04DX003 (ip), vehicle: carboxymethylcellulose (CMC)) was 1 of 6.
With `COc1c2c(cc3c1N(C)C(=O)CC3C)C(C)CC(=O)N2` (stereo unspecified) the survivor count (dose: 150.0 mg/kg/injection, schedule: Q04DX003 (ip), vehicle: Klucel (hydroxypropylcellulose) (HPC)) was 3 of 6 and the survivor count (dose: 300.0 mg/kg/injection, schedule: Q04DX003 (ip), vehicle: Klucel (hydroxypropylcellulose) (HPC)) was 0 of 6.
With `CSc1ccc(OC(=O)Nc2ccccc2F)cc1` the survivor count [2] was 5 of 6.
